# Measured data: PubChem BioAssay AID504804 (Drosophila RNAi Screening Center, 2011)
# Purpose: 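dsRNAs that improve Kc cell survival under doxorubicin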 (primary screen)
# Cell system: Drosophila Kc cells
# Reagents: long dsRNA against Drosophila genes, 0.5 µg dsRNA per well
# Timing: 96 h (48 h knock-down, then 48 h drug)
# Conditions: doxorubicin 5 µg/ml for 48 h, added 48 h after dsRNA
# Measured: 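Viability measured as cellular ATP by luminescence after 48 h knock-down then 48 h doxorubicin at 5 µg/ml; unnormalised plate counts for each replicate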
# Reading the numbers: raw ATP luminescence: higher = more viable cells, protection from doxorubicin
# Hit rule: 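z-score of 2 or more over plate mean in both duplicates, retained only when retests and separate dsRNAs confirm the protection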
# In all, the deposit lists about 19,000 reagents; below is an unselected part of those with a known target gene and a result. In the full data, 47 (0.25%) got an active call. 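Signals are raw, not normalised; exact z-scores behind calls not deposited; actives needed confirmation, so some wells reaching 2 SD are inactive.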 Entries without a mark were called inactive. Names joined by + are all predicted targets of the reagent. Reagent sequences are not shown.
target,dsRNA,SD above plate mean,"raw ATP luminescence, replicate 1","raw ATP luminescence, replicate 2"
Ccp84Af,DRSC12591,,47880,68370
CG4229,DRSC10407,,23873,19863
lwr (lesswright),DRSC00828,,1.06e5,85277
CG31077,DRSC13805,,1.84e5,1.74e5
snRNA:U1:95Cc + snRNA:U1:95Cb,DRSC13641,,1.64e5,1.87e5
eyg (eyegone),DRSC11344,,38197,34153
Taf13 (TBP-associated factor 13),DRSC02106,,53143,67353
Mdh1 (retired record),DRSC02846,,34033,77863
Rad9,DRSC11263,,20507,22610
CG14573,DRSC11734,,68753,62603
CG42327,DRSC14936,,43547,54383
CG42327,DRSC14937,,57737,51270
CG9582,DRSC03267,,48830,83553
Agpat1 (1-Acylglycerol-3-phosphate O-acyltransferase 1),DRSC19879,,3.29e5,3.20e5
Agpat1 (1-Acylglycerol-3-phosphate O-acyltransferase 1),DRSC19880,,3.20e5,3.22e5
CG17707,DRSC20650,,3.60e5,3.32e5
"DCTN3-p24 (Dynactin 3, p24 subunit)",DRSC04592,,63950,55517
Atpalpha (Na pump alpha subunit),DRSC14119,,35910,38553
CG10943,DRSC09805,,91930,82340
Or85d (Odorant receptor 85d),DRSC16767,,66200,68280
CG5013,DRSC15695,,71670,83210
CG12486 (retired record),DRSC09888,,85110,60397
Cpr72Eb (Cuticular protein 72Eb),DRSC09870,,54797,52080
Dhdds (Dehydrodolichyl diphosphate synthase subunit),DRSC17756,,33600,34610
Non1 (Novel nucleolar protein 1),DRSC05954,,58010,50950
Lsp1alpha (Larval serum protein 1 alpha),DRSC20258,,2.86e5,1.77e5
asRNA:CR42743 + CG34162,DRSC01190,,3.16e5,3.33e5
CR18275 + CG13373,DRSC17900,,38430,52010
if (inflated),DRSC20341,,3.12e5,2.35e5
Snmp2 (Sensory neuron membrane protein 2),DRSC10228,,68690,99243
Snmp2 (Sensory neuron membrane protein 2),DRSC10843,,63090,77530
CG33271,DRSC10583,,73357,47123
amd (alpha methyl dopa-resistant),DRSC02608,,60413,57127
amd (alpha methyl dopa-resistant),DRSC03483,,59170,60623
Yip1d1 (Yip1 domain-containing 1),DRSC02166,,57927,73213
Cyp4s3 (Cytochrome P450 4s3),DRSC20241,,3.44e5,3.65e5
fz (frizzled),DRSC11348,,57710,48673
kibra,DRSC14533,,60370,74580
kibra,DRSC16257,,18920,20020
CG4839,DRSC02783,,93363,61253
CG4839,DRSC02784,,42693,63510
RYBP (Ring and YY1 Binding Protein),DRSC04117,,68400,63677
CG13609,DRSC14612,at least 2 SD above plate mean,1.03e5,1.01e5
Cyp6a18 (Cytochrome P450 6a18),DRSC16632,,67920,51500
PPO3 (Prophenoloxidase 3),DRSC04325,,77207,58847
CG31778,DRSC00283,,1.03e5,65020
CG42355,DRSC07967,,1.69e5,1.59e5
trbd (trabid),DRSC16494,,43337,39067
Ac3 (Adenylate cyclase 3),DRSC03692,,67973,55497
pall (pallbearer),DRSC10364,,37620,43100
His4:CG33883 + His4:CG33889 + His4:CG33899 + 20 more,DRSC21268,,2.10e5,2.09e5
Hph (HIF prolyl hydroxylase),DRSC12164,,49300,27313
Hph (HIF prolyl hydroxylase),DRSC12251,,66707,57880
chk (chaski),DRSC04994,,87720,62503
CG31759,DRSC01230,,2.32e5,2.62e5
upd3 (unpaired 3),DRSC19636,,3.58e5,3.43e5
upd3 (unpaired 3),DRSC19968,,4.01e5,3.37e5
GstZ2 (Glutathione S transferase Z2),DRSC16479,,57977,32027
CG9890,DRSC04590,,56313,62740
CG33096,DRSC14440,,31517,32410
Cln7,DRSC11005,,32013,32047
Unr (Upstream of N-ras),DRSC10761,,55553,38543
mRpL44 (mitochondrial ribosomal protein L44),DRSC12306,,51073,26407
CG30034 (retired record),DRSC05288,,82980,89263
CG12784,DRSC14539,,62970,56300
RpS10b (Ribosomal protein S10b),DRSC19561,,3.65e5,3.91e5
ena (enabled),DRSC05779,,95403,58677
ena (enabled),DRSC07610,,56127,81347
Pdp1 (PAR-domain protein 1),DRSC08896,,29827,29900
Pdp1 (PAR-domain protein 1),DRSC08897,,21090,22557
Pdp1 (PAR-domain protein 1),DRSC11251,,67360,71253
CG17127,DRSC02581,,38827,68563
Esyt2 (Extended synaptotagmin-like protein 2),DRSC16082,,33040,34607
TpnC25D (Troponin C at 25D),DRSC02965,,33310,35483
"ATPsynO (ATP synthase, oligomycin sensitivity conferring protein)",DRSC16780,,67223,33453
hang (hangover),DRSC19902,,1.37e5,1.64e5
EndoU (Endoribonuclease U-specific),DRSC15472,,52440,56430
CG32262,DRSC08165,,41167,37683
CG7272,DRSC10795,,60633,43060
Snm1,DRSC12130,,48027,25280
CG14322,DRSC14801,,18830,22820
RnrL (Ribonucleoside diphosphate reductase large subunit),DRSC03413,,80153,60937
ldd (lipid droplet defective),DRSC20558,,3.14e5,3.04e5
CG15034,DRSC17966,,67650,63130
Ac76E (Adenylyl cyclase 76E),DRSC09642,,63783,63320
Ac76E (Adenylyl cyclase 76E),DRSC09662,,24147,18897
Usp12-46 (Ubiquitin-specific protease 12/46),DRSC16175,,62610,63320
CG30389,DRSC04077,,54720,44680
CG30389,DRSC04452,,28923,34943
CG10750,DRSC02105,,94467,77733
CG8170,DRSC07087,,50203,62043
CG7251,DRSC03039,,94947,74723
CG7377,DRSC10830,,66307,62550
PGRP-LA (Peptidoglycan recognition protein LA),DRSC10327,,68527,56963
PGRP-LA (Peptidoglycan recognition protein LA),DRSC10414,,63920,50967
Orc2 (Origin recognition complex subunit 2),DRSC16776,,63547,26770
CG15247,DRSC17976,,3.27e5,3.19e5
dpr4 (defective proboscis extension response 4),DRSC14531,,61490,53757
dpr4 (defective proboscis extension response 4),DRSC14929,,60383,61070
CG5715,DRSC15860,,62310,60870
lush,DRSC11364,,79877,79410
ms(3)76Cc (male sterile (3) 76Cc),DRSC11071,,73523,67330
CD98hc (CD98 heavy chain),DRSC15453,,69010,72487
Hmr (Hybrid male rescue),DRSC17740,,3.09e5,3.49e5
Cht7 (Chitinase 7),DRSC08538,,31647,44477
CG13679,DRSC10037,,45923,62033
CG3626,DRSC18318,,45650,46790

A run of entries taken from the entries so far:
target,dsRNA,SD above plate mean,"raw ATP luminescence, replicate 1","raw ATP luminescence, replicate 2"
Hph (HIF prolyl hydroxylase),DRSC12164,,49300,27313
Hph (HIF prolyl hydroxylase),DRSC12251,,66707,57880
chk (chaski),DRSC04994,,87720,62503
CG31759,DRSC01230,,2.32e5,2.62e5
upd3 (unpaired 3),DRSC19636,,3.58e5,3.43e5
upd3 (unpaired 3),DRSC19968,,4.01e5,3.37e5
GstZ2 (Glutathione S transferase Z2),DRSC16479,,57977,32027
CG9890,DRSC04590,,56313,62740
CG33096,DRSC14440,,31517,32410
Cln7,DRSC11005,,32013,32047
Unr (Upstream of N-ras),DRSC10761,,55553,38543
mRpL44 (mitochondrial ribosomal protein L44),DRSC12306,,51073,26407
CG30034 (retired record),DRSC05288,,82980,89263
CG12784,DRSC14539,,62970,56300
